Experimental data taken from article PMC4695026.
No constants are given. Whether binding was seen depends on the method and setting. Binding seen in cells or lysates may run through a third protein. Binding can be weak; no strength is given.

Target: N-terminal region of STMN1 (GFP-tagged STMN1 mutant)
Assay: co-IP; cells transfected with tagged constructs (Myc-tagged PIWIL1 or its deletion mutants, GFP-tagged STMN1 mutants); lysate with 1-3 ug antibody or IgG overnight, protein A+G agarose beads 2 h; Western blot

binding: binds
B1: RLIM (enzyme, UniProt Q9NVW2 1-624)
chain: MENSDSNDKGSGDQSAAQRRSQMDRLDREEAFYQFVNNLSEEDYRLMRDNNLLGTPGESTEEELLRRLQQIKEGPPPQNSDENRGGDSSDDVSNGDSIIDWLNSVRQTGNTTRSGQRGNQSWRAVSRTNPNSGDFRFSLEINVNRNNGSQNSENENEPSARRSSGENVENNSQRQVENPRSESTSARPSRSERNSTEALTEVPPTRGQRRARSRSPDHRRTRARAERSRSPLHPMSEIPRRSHHSISSQTFEHPLVNETEGSSRTRHHVTLRQQISGPELLSRGLFAASGTRNASQGAGSSDTAASGESTGSGQRPPTIVLDLQVRRVRPGEYRQRDSIASRTRSRSQTPNNTVTYESERGGFRRTFSRSERAGVRTYVSTIRIPIRRILNTGLSETTSVAIQTMLRQIMTGFGELSYFMYSDSDSEPTGSVSNRNMERAESRSGRGGSGGGSSSGSSSSSSSSSSSSSSSSSSSSPSSSSGGESSETSSDLFEGSNEGSSSSGSSGARREGRHRAPVTFDESGSLPFLSLAQFFLLNEDDDDQPRGLTKEQIDNLAMRSFGENDALKTCSVCITEYTEGNKLRKLPCSHEYHVHCIDRWLSENSTCPICRRAVLASGNRESVV
